# Measured values as given in patent US5091367A (Hoechst Aktiengesellschaft, priority 1986, dated 1992).
# Assay: general procedure: solution-phase peptide synthesis; DCC/HOBt or DCC/HOObt with N-ethylmorpholine
# Details: acetate
Substance,step yield (coupling step) [%],step yield (late stage modification step) [%]
Z-D-Ser(Ac4 -β-D-Glc)-Leu-Arg-Pro-NH-C2 H5 -tosylate,83,–
H-D-Ser(Ac4-β-D-Glc)-Leu-Arg-Pro-NH-C2H5,–,67
